In PubChem BioAssay AID1487 (National Center for Advancing Translational Sciences (NCATS), 2009):
This is one part of the list. Shown are side measurements of this screen, not its main read-out; they come without a call. The list favours compounds with an active or inconclusive main result. Potencies come from curve fits of mixed quality, noted in brackets.

Test: qHTS Assay for Modulators of Lamin A Splicing
Conditions: HeLa LMNA splicing GFP/RFP minigene ratio, 48 h
Outline: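 S3 HeLa stable clones carrying a lamin A-EGFP splicing minigene plus DsRed2 were seeded at 600 cells/well in Opti-MEM with 2% FBS, pin-dosed and incubated 48 h at 37°C. Acumen cytometry (488 nm) gave the GFP/RFP total-intensity ratio.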

[1] = measured here: GFP splicing reporter channel
[2] = measured here: RFP viability control channel

| Compound | AC50 [1] | AC50 [2] |
| --- | --- | --- |
| Cc1ccc2nc(-c3ccncc3)cc(C(=O)NCCc3ccc(F)cc3)c2c1 | 3.55 µM [falling, single point] | 17.8 µM [falling, single point] |
| CN(C)c1ccc(CNC(=O)C2CCN(S(=O)(=O)c3ccc4[nH]c(=O)ccc4c3)CC2)cc1 | 0.178 µM [falling, full curve, poor fit] |  |
| Clc1ccc(/C=C/c2nc3ccccc3[nH]2)c(Cl)c1 | 20 µM [falling, single point] | 11.2 µM [falling, partial curve] |
| CNS(=O)(=O)c1cnccc1N1CCN(c2cccc(Cl)c2)CC1 | 12.6 µM [rising, partial curve] | 31.6 µM [rising, single point] |
| O=[N+]([O-])c1ccccc1/C=C/C=N/Nc1nc(N2CCCCC2)nc(N2CCCCC2)n1 |  | 0.282 µM [rising, partial curve] |
| Cc1cc(N2CCC(C)CC2)nc(-n2nc(C)cc2C)n1 |  | 10 µM [rising, partial curve, poor fit] |
| COc1ccc(C(=O)N(c2ccc(C)cc2)S(=O)(=O)c2ccc(C)cc2)cc1 |  | 14.1 µM [rising, single point] |
| O=C(CSc1nc2ccccc2c(=O)n1CCCN1CCOCC1)Nc1cccc(S(=O)(=O)N2CCCCCC2)c1 |  | 25.1 µM [rising, single point] |
| COc1cc(C(=O)Nc2cc(-c3ccccc3)[nH]n2)cc(OC)c1OC |  | 12.6 µM [rising, partial curve] |
| CS(=O)(=O)Nc1cccc(C2=NN(S(C)(=O)=O)C(c3ccccc3)C2)c1 (stereo not drawn) |  | 1.41 µM [falling, partial curve, poor fit] |
| CCCCNS(=O)(=O)c1ccc(S(=O)(=O)NCc2ccncc2)cc1 | 10 µM [rising, partial curve] | 7.94 µM [rising, partial curve] |
| CCOc1ccc(NC(=O)COc2nsnc2N2CCCCC2)cc1 | 35.5 µM [rising, single point] | 35.5 µM [rising, single point] |
| COc1ccc(/C=C2\C(=O)NC(=S)N2C(=O)c2ccc(C)cc2)cc1 |  | 22.4 µM [rising, single point] |
| COc1ccc(Nc2nc(-c3cccs3)nc3ccccc23)cc1 |  | 35.5 µM [rising, single point] |
| O=C(CSc1ccc(-c2nc3ccccc3[nH]2)cn1)N1CCN(C(=O)c2ccco2)CC1 |  | 10 µM [rising, partial curve] |
| O=S(=O)(c1ccc(S(=O)(=O)N2CCOCC2)cc1)N1CCCC1 | 35.5 µM [falling, single point] |  |
| Cc1nc(Nc2ccccc2)sc1-c1ccccc1 |  | 0.00447 µM [rising, full curve, poor fit] |
| O=C(/C=C/c1ccc(Cl)cc1)N1CCN(c2ccccc2[N+](=O)[O-])CC1 |  | 31.6 µM [rising, single point] |

| Compound | AC50 [1] | AC50 [2] |
| --- | --- | --- |
| COC(=O)N/N=C/c1cn(Cc2ccccc2Cl)c2ccccc12 | 12.6 µM [rising, single point] | 12.6 µM [rising, partial curve] |
| C=C(C)CNC(=S)N/N=C/c1ccc(NC(C)=O)cc1 | 0.0316 µM [falling, full curve, poor fit] | 0.00316 µM [falling, full curve, poor fit] |
| Cc1nn(C2CCS(=O)(=O)C2)c(Cl)c1/C=C/C(=O)OCC(=O)c1cc(C)n(-c2ccc(F)cc2)c1C (stereo not drawn) | 8.91 µM [rising, partial curve] | 12.6 µM [rising, partial curve] |
| COc1ccc(CCNC(=O)Cn2c(-c3ccc(F)cc3)cc(C(C)=O)c2C)cc1OC | 3.55 µM [rising, partial curve, poor fit] |  |
| CCCCOc1cccc(-c2cc(C(=O)NNC(=S)NCC)c3ccccc3n2)c1 | 20 µM [rising, single point] | 17.8 µM [rising, single point] |
| c1sc2[n+](c1C13CC4CC(CC(C4)C1)C3)CCS2 | 11.2 µM [rising, partial curve] | 20 µM [rising, partial curve] |
| O=c1c(-c2cc(F)cc(F)c2)nc2cncnc2n1Cc1ccccc1 | 0.0631 µM [falling, full curve, poor fit] | 2.24 µM [falling, partial curve, poor fit] |
| CSC1=N/C(=C\c2ccc(F)cc2)C(=O)S1 | 7.94 µM [falling, partial curve, poor fit] |  |
| CCC/C(=N\NC(=O)c1ccc(OC)c(OC)c1)c1ccccc1 | 0.01 µM [falling, full curve, poor fit] |  |
| CCOP(=O)(OCC)C(Nc1cccc(C(F)(F)F)c1)c1ccc(F)cc1 (stereo not drawn) |  | 31.6 µM [rising, single point] |
| CC1CCCC(C)N1C(=O)Cn1c(SCC(=O)NCc2ccc3c(c2)OCO3)nc2ccccc21 (stereo not drawn) | 15.8 µM [rising, partial curve, poor fit] |  |
| O=C(Nc1ccn(Cc2ccccc2F)n1)c1ccc(COc2ccccc2Cl)cc1 | 10 µM [rising, partial curve] | 10 µM [rising, partial curve] |
| Cc1ccc(S(=O)(=O)/N=C(\CCl)N2CCOCC2)cc1 |  | 35.5 µM [rising, single point] |
| O=C(Cn1c(-c2cscn2)nc2ccccc21)Nc1ccc(Cl)cc1 |  | 15.8 µM [rising, partial curve] |
| Cc1noc(C)c1-c1ccc2ncnc(NCc3cccnc3)c2c1 | 2.51 µM [falling, full curve] |  |
| Cc1nc(NC2=NCN(CCCN3CCOCC3)CN2)nc2c(C)cccc12 |  | 35.5 µM [rising, single point] |
| Cc1cc2cc(CNC(=O)c3cc4ccccc4o3)ccc2n1C | 3.55 µM [falling, single point] | 3.55 µM [falling, partial curve] |

Individual results from the entries so far.
Value for C=C(C)CNC(=S)N/N=C/c1ccc(NC(C)=O)cc1 under AC50 [1]: 0.0316 µM [falling, full curve, poor fit]
Value for CCC/C(=N\NC(=O)c1ccc(OC)c(OC)c1)c1ccccc1 under AC50 [1]: 0.01 µM [falling, full curve, poor fit]
